Test results from the supplement of paper PMC12823440, “Inhibitors supercharge kinase turnover through native proteolytic circuits” (Nature, 2025).
Structures can show the parent of a compound that is named as a salt. The list shows a part of the results. The calls rarely recur for the same compound in another form.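 Kinases were expressed as nanoluciferase fusions in K562 cells and luminescence was read every 4 h between 2 and 18 h as percent of control, DMSO set to 100% and a positive control to 0%. A time point counts as decreased when the signal drops significantly (2 sigma). The hit call is the authors' own, does not follow from the count of time points alone, and its rule is not shown.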

By UniProt entry, the sequences of proteins in these tests, tags left out. Where a name states a change or a piece, a line headed by the entry shows the natural chain unless it says otherwise.
UniProt O14965: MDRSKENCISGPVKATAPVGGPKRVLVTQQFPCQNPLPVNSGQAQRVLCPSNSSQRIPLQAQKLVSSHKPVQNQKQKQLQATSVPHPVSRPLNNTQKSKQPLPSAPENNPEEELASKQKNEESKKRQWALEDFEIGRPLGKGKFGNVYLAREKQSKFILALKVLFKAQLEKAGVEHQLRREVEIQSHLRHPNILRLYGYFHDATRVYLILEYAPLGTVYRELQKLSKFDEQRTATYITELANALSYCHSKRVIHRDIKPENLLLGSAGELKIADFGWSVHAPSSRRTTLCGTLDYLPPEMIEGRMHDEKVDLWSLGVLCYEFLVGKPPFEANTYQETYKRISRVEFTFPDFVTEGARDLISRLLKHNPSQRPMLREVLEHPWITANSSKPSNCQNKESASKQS

These compounds were tested against AURKA (UniProt O14965) (assay: number of time points (of 5) at which kinase-Nluc abundance scored as decreased, DMSO-normalised (count); higher = more persistent destabilization). Conditions: K562; 2-18 h.
With CN1CC[C@@H](c2c(O)cc(O)c3c(=O)cc(-c4ccc(C(F)(F)F)cc4Cl)oc23)[C@@H]1CO [Voruciclib (hydrochloride)] (10 µM) the “number of time points” value was 0. O=c1cc(-c2cccc3c2Sc2ccccc2S3)oc(N2CCOCC2)c1 (10 µM) was tested, and the “number of time points” value was 0. For O=[N+]([O-])c1ccc(Nc2nc(N3CCOCC3)nc(N3CCOCC3)n2)cc1 (10 µM), the “number of time points” value was 0. For c1ccc(-c2nc(=NCCN3CCOCC3)sn2-c2ccccc2)cc1 [VP3.15 (dihydrobromide)] (10 µM), the “number of time points” value was 0. In the case of Nc1nc(N)c2nc(-c3cccc(O)c3)cnc2n1 (10 µM), the “number of time points” value is reported as 0. For Nc1ncnc2c1c(-c1ccc(Oc3ccccc3)cc1)nn2C1CCN(CCOCCOCCOc2ccc3c(c2)CN(C2CCC(=O)NC2=O)C3=O)CC1 (stereo not drawn) (2.5 µM), the “number of time points” value was 0. In the case of C=CC(=O)N1C[C@H](COc2nc(Nc3cnn(C)c3)nc3[nH]cc(Cl)c23)[C@@H](OC)C1 (2.5 µM), the “number of time points” value is reported as 0. For Cc1nn(C)c2c1C(c1ccc(C(F)(F)F)cc1)C(C#N)=C(N)O2 (stereo not drawn) (10 µM), the “number of time points” value was 0. In the case of O=C(NC1CCOCC1)c1ccc(-c2cc(-c3c[nH]nc3-c3ccccn3)ccn2)cc1 (10 µM), the “number of time points” value is reported as 0. For CC/C(=N\NC(=O)c1ccnc(NCCCN2CCOCC2)c1)c1ccc(Cl)cc1O (2.5 µM), the “number of time points” value was 0. In the case of COc1cc(N2CCOCC2)ccc1Nc1ncc(Cl)c(Nc2ccccc2NS(C)(=O)=O)n1 (2.5 µM), the “number of time points” value is reported as 0. For Cn1cnc([N+](=O)[O-])c1C[N+](C)(C)C/C=C/C(=O)Nc1cc2c(Nc3ccc(Cl)c(Br)c3)ncnc2cn1 [Tarloxotinib (bromide)] (10 µM), the “number of time points” value was 0. For O=C(Nc1cccc(C(F)(F)F)c1)c1cccc2cc(Oc3cc(CO)ncn3)ccc12 (10 µM), the “number of time points” value was 0. With Oc1ccc(/C=C/c2cc(O)cc(O)c2)cc1 [Resveratrol] (10 µM) the “number of time points” value was 0. With O=c1[nH]c(C2CCCN2)nc2c1oc1ccc(Cl)cc12 (stereo not drawn) [XL413 (hydrochloride)] (10 µM) the “number of time points” value was 0. CN(c1ccc(NC(=O)Nc2ccc(OC(F)(F)F)cc2)cc1)c1ccnc(Nc2cccc(S(N)(=O)=O)c2)n1 (2.5 µM) was tested, and the “number of time points” value was 3. For C=C[C@@](C)(/C=C/c1ccc(O)cc1)CCC=C(C)C [Bakuchiol] (10 µM), the “number of time points” value was 0. With COc1cc2ncnc(-n3nc(-c4ccccn4)nc3N)c2cc1OC (10 µM) the “number of time points” value was 0. For CNc1nc(Nc2ccc(C(=O)N3CCOCC3)cc2OC)ncc1Cl (2.5 µM), the “number of time points” value was 0. With CC(C)S(=O)(=O)c1ccc2nccc(Nc3ccc4scnc4c3)c2c1 (10 µM) the “number of time points” value was 0. CC(C)(O)[C@H]1CC[C@H](Nc2ccc3ncc(-c4cccc(C(F)(F)F)c4)n3n2)CC1 (10 µM) was tested, and the “number of time points” value was 0. With CCN(CC)c1ccc2cc(-c3nc4cc(C)ccc4o3)c(=O)oc2c1 (10 µM) the “number of time points” value was 0. CN(C)S(=O)(=O)c1ccc2c(c1)/C(=C/c1cc3c([nH]1)CCCC3)C(=O)N2 (2.5 µM) was tested, and the “number of time points” value was 0. For C=CC(=O)Nc1cc(Nc2nccc(-n3cc(CN(C)C)c(-c4ccccc4)n3)n2)c(OC)cc1N1CCOCC1 [Lazertinib] (10 µM), the “number of time points” value was 0. With Cc1ccc2c(Nc3cccc(Cl)c3F)nccc2c1NC(=O)c1csc2c(N)ncnc12 [Belvarafenib] (10 µM) the “number of time points” value was 0. In the case of Oc1cc(O)c2c(c1)OC1(c3ccc(O)c(O)c3)Oc3cc(O)c4c(c3C2C1O)OC(c1ccc(O)c(O)c1)C(O)C4 (stereo not drawn) [Procyanidin A1] (10 µM), the “number of time points” value is reported as 0. With c1ccc(-c2nc3c(c(-n4ccc5cnccc54)n2)CCC3)nc1 (10 µM) the “number of time points” value was 0. With Cc1cc(C)nc(NS(=O)(=O)c2ccc(NC(=S)NC(=O)COc3ccc(Br)cc3Cl)cc2)n1 (2.5 µM) the “number of time points” value was 0. With Cc1ccc(NC(=O)c2ccc(CN(CCN(C)C)C(=O)c3cccnc3)cc2)cc1Nc1nccc(-c2cccnc2)n1 [PDGFRα kinase inhibitor 1] (10 µM) the “number of time points” value was 0. With C[C@H](Nc1ncnc2[nH]cnc12)c1cc2ccc(F)cc2nc1-c1ccccn1 (10 µM) the “number of time points” value was 0. CN(C)CCC=C1c2ccccc2CCc2ccccc21 [Amitriptyline (hydrochloride)] (2.5 µM) was tested, and the “number of time points” value was 0. O=C1/C(=C\c2ccc(Cl)cc2)C=C(c2ccccc2)N1c1ccc(O)cc1 (2.5 µM) was tested, and the “number of time points” value was 0. With C[C@@H]1CCNC(=O)c2cc3ccc(C(=O)Nc4nc5ccccc5n4CCCN(C)C)cc3n21 (10 µM) the “number of time points” value was 0. In the case of COc1c(Nc2cc(C)[nH]n2)nc(Sc2ccc(S(=O)(=O)Cc3cccc([N+](=O)[O-])c3F)cc2F)nc1N1CCCCC1 [Centrinone-B] (2.5 µM), the “number of time points” value is reported as 0. In the case of COc1ccc(/C=C/C(=O)C2(C(=O)/C=C/c3ccc(OC)c(OC)c3)CCCCC2)cc1OC (2.5 µM), the “number of time points” value is reported as 0. CN(C)c1nc2c(Br)c(Br)c(Br)c(Br)c2[nH]1 (10 µM) was tested, and the “number of time points” value was 0. In the case of O=C(Nc1nc(=O)n(Cc2ccc(Cl)cc2)s1)c1ccc(Cl)cc1 (10 µM), the “number of time points” value is reported as 0. Nc1n[nH]c2nc(-c3ccc(NS(=O)(=O)c4cc(Cl)ccc4F)cc3)cnc12 (10 µM) was tested, and the “number of time points” value was 0.
